The values that follow come from patent US7022297B2, “Method and system for purifying or cleansing a gas stream or gaseous body” (priority 2001, dated 2006).

The nature of data set [1]: Organic contaminants elimination from air in prototype scrubber with biocide spray. Conditions: per 5 hour cycle.
Data set [2] in a line: Inorganic contaminants elimination from air in prototype scrubber with biocide spray. Particulars: per 24 hour period.

`CC(C)=O` [Acetone]: in data set [1], the “PERCENTAGE ELIMINATION” value is listed as 98.75%, the POST-TEST amounted to 366 ppm and the REDUCTION is given as −2904.6 ppm.
Turning to `CCCCCC` [Hexane], in data set [1], the “PERCENTAGE ELIMINATION” value is 38.3%, the POST-TEST came out at 1125 ppm and the REDUCTION is given as −700.6 ppm.
In turn, `O=O` [Oxygen (O2), Oxygen] had an Oxygen increase in data set [2] of 0.5% increase.
